According to PubChem BioAssay AID2685 (National Center for Advancing Translational Sciences (NCATS), 2010):
Hit rate of the full screen: of about 320,000 compounds, about 2,100 (0.66%) were called active. This list was built around the results that the source calls inconclusive (neither active nor inactive); the mix of calls is not that of the screen. Calls come from the whole dose curve; as a rule, active = well fitted inhibition curve with a large enough effect in the signal ratio, with a control signal flat (not every such curve was filed as active); inconclusive = small, poorly fitted or top-dose-only effect, or effect the other way, or a change in a side signal; inactive = flat fitted curve, though single readings scatter; the % refers to the signal ratio. Potencies of inconclusive entries are doubtful fits and often do not repeat.

assay: qHTS Assay for Lipid Storage Modulators in Drosophila S3 Cells; conditions: BODIPY lipid droplet fluorescence, 18-24 h, cells fed with added oleic acid; lipid storage change, negative = inhibition: at 46.1 µM (top of the series) unless noted
Method in brief: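 Drosophila S3 cells loaded with oleic acid (400 uM, as added) and compounds at several concentrations; lipid droplets imaged by 488-nm laser-scanning cytometry, 500–530 nm intensity and object ratio to cell channel. Percent activity normalized to 20 uM Triacsin C.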
% is set by controls: 0 for no effect and ±100 for the full control effect; potency is the fitted concentration of half-maximal effect.

Lipid storage change, negative = inhibition, inconclusive:
O=C(NCc1ccc2c(c1)OCO2)C(=O)NCC1OCCN1S(=O)(=O)c1ccc(Br)cc1 (stereo unspecified) 16.9%
CC(=O)Nc1ccc(C(=O)OCC(=O)NCc2ccccc2)cc1 -15.9%
COC(=O)C1=C(C)NC(C)=C(C(=O)OC)C1C(=O)OC1CCCCC1=O (stereo unspecified) 20.5%
Cc1cc(-c2csc(NC(=O)c3ccc(C#N)cc3)n2)c(C)n1Cc1ccco1 17.4%
COc1ccc(C(=O)Nc2ccc(NC(=O)c3ccco3)c(Cl)c2)cc1OC 9.25%
COc1ccc(/C=C2/C(=O)N(c3cccc(F)c3)N=C2C)c(OC)c1 -16.5%
CCN(CC)CCSc1nc(O)c(-c2ccccc2)c(=O)n1-c1ccccc1 88.8%
O=C1CCC(=O)N1c1ccc(NCCc2cccc(F)c2)c([N+](=O)[O-])c1 7.16%
CCOC(=O)c1ccc(NC(=O)CC2C(=O)N(c3cccc(OC)c3)C(=O)N2CCOC)cc1 (stereo unspecified) 76.5%
Cc1cccc(C)c1NC(=S)NNc1ncc(C(F)(F)F)cc1Cl 148%
CC(C)(Cc1ccc(O)cc1)NC(=O)CC(=O)N=Nc1c(O)[nH]c2ccc(Br)cc12 32.5%
CC(=O)c1cccc(NC(=O)CCCOc2ccc(C)cc2)c1 4.71%
O=C(CCl)N(c1ccccc1)c1c[nH]c2ccccc12 -55.3%
CSc1ccc(C2CC(=O)Nc3nc(SC)[nH]c(=O)c32)cc1 (stereo unspecified) 16%
Cc1nc2c(c(=O)n1CCC(C)C)c1nc3ccccc3nc1n2Cc1ccc2c(c1)OCO2 16.6%
Cc1cc(=O)n2nc(-c3ccccc3)sc2c1C#N 12.6%

For convenience, five of the compounds above.
Lipid storage change, negative = inhibition, inconclusive:
Cc1cc(-c2csc(NC(=O)c3ccc(C#N)cc3)n2)c(C)n1Cc1ccco1 17.4%
COc1ccc(C(=O)Nc2ccc(NC(=O)c3ccco3)c(Cl)c2)cc1OC 9.25%
COc1ccc(/C=C2/C(=O)N(c3cccc(F)c3)N=C2C)c(OC)c1 -16.5%
CCN(CC)CCSc1nc(O)c(-c2ccccc2)c(=O)n1-c1ccccc1 88.8%
O=C1CCC(=O)N1c1ccc(NCCc2cccc(F)c2)c([N+](=O)[O-])c1 7.16%

Following part:

Potency, inconclusive:
CCC(=O)Nc1ccc(/C(C)=N/NC(=O)c2c(Br)c(C)nn2C)cc1 6.51 µM [rising, single point]
COCCN(Cc1cn[nH]c1-c1ccc2cc(OC)ccc2c1)C(C)C 18.4 µM [activator, partial curve]
CC(=O)N1c2c(cc(Br)cc2S(=O)(=O)NCc2ccc(C)cc2)CC1C (stereo unspecified) 0.411 µM [falling, partial curve, poor fit]
CC(C)(C)C(C(=O)Oc1ccccc1)c1ccccc1 (stereo unspecified) 0.13 µM [activator, single point]
S=c1[nH]nc(-c2ccccc2)n1Cc1ccccc1 6.51 µM [activator, partial curve]
